# Data as given in PubChem BioAssay AID1224826 (NIAID, 2016)
# Aim: 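Genes that change LPS-induced Tnf promoter activity in mouse macrophages when knocked down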 (primary screen)
# Cells: RAW264.7 G9 macrophages from mouse bearing reporters for p65 (GFP) and the Tnf promoter (mCherry)
# Reagents: siRNA pool against mouse genes, 100 nM
# Timing: 16 h of LPS stimulation, after 2 days of siRNA transfection
# Conditions: bacterial lipopolysaccharide (Salmonella minnesota R595), 10 ng/ml
# Measurement: 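Nuclear mCherry signal of the Tnf promoter reporter measured by imaging after background removal, scaled to each plate median and turned into robust z-scores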
# Direction: Tnf reporter robust z-score: higher = stronger Tnf promoter reporter signal after LPS
# Hit rule: 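Called active when robust z-score is at most -1.3, matching the median of the Tlr4 knock-down control, or over 3; control wells and wells with under 50 cells never active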
# Calls: active = Tnf reporter clearly lowered or raised; inactive = no clear change in Tnf reporter
# This is an unselected part of about 17,000 reagents tested. About 1,110 of all reagents (6.6%) were called active. 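Active means lowered or raised reporter signal; replicate intensities are raw and not normalised per plate.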 A number with no mark means an inactive call. Further read-outs or replicates are left out here. No sequences are given here.
target,PubChem SID,Tnf reporter robust z-score,fewer than 50 cells in well
"Acad9 (acyl-Coenzyme A dehydrogenase family, member 9)",SID315478689,0.82,enough cells in well
Prr13 (proline rich 13),SID315472247,2.73,enough cells in well
Itgb5 (integrin beta 5),SID315467521,0.95,enough cells in well
Cypt4 (cysteine-rich perinuclear theca 4),SID315479225,-1.29,enough cells in well
Ska2 (spindle and kinetochore associated complex subunit 2),SID315472239,-0.27,enough cells in well
Hdac5 (histone deacetylase 5),SID315467167,-0.74,enough cells in well
"Gpsm2 (G-protein signalling modulator 2 (AGS3-like, C. elegans))",SID315475247,1.39,enough cells in well
Or7g17 (olfactory receptor family 7 subfamily G member 17),SID315480671,1.72,enough cells in well
Rhox11 (reproductive homeobox 11),SID315477457,0.13,enough cells in well
Kif13b (kinesin family member 13B),SID315467612,1.65,enough cells in well
Tmc7 (transmembrane channel-like gene family 7),SID315477614,,fewer than 50 cells per well; well left out of calls
Nop9 (NOP9 nucleolar protein),SID315473252,1.73,enough cells in well
Rbbp8nl (RBBP8 N-terminal like),SID315480958,,fewer than 50 cells per well; well left out of calls
Iigp1 (interferon inducible GTPase 1),SID315472017,-0.79,enough cells in well
Arhgap22 (Rho GTPase activating protein 22),SID315479413,-0.72,enough cells in well
Or6c69b (olfactory receptor family 6 subfamily C member 69B),SID315480214,2.53,enough cells in well
"Il10ra (interleukin 10 receptor, alpha)",SID315467423,-1.08,enough cells in well
"Grin2d (glutamate receptor, ionotropic, NMDA2D (epsilon 4))",SID315467037,0.71,enough cells in well
Gcm2 (glial cells missing homolog 2),SID315476653,-1.07,enough cells in well
"Naa25 (N(alpha)-acetyltransferase 25, NatB auxiliary subunit)",SID315478919,-0.68,enough cells in well

In a second layout: entries from further up.
target | PubChem SID | Tnf reporter robust z-score | fewer than 50 cells in well
Cypt4 (cysteine-rich perinuclear theca 4) | SID315479225 | -1.29 | enough cells in well
Ska2 (spindle and kinetochore associated complex subunit 2) | SID315472239 | -0.27 | enough cells in well
Hdac5 (histone deacetylase 5) | SID315467167 | -0.74 | enough cells in well
Gpsm2 (G-protein signalling modulator 2 (AGS3-like, C. elegans)) | SID315475247 | 1.39 | enough cells in well

Additional reagents:
target,PubChem SID,Tnf reporter robust z-score,fewer than 50 cells in well
Galk2 (galactokinase 2),SID315473949,-0.89,enough cells in well
Plpp3 (phospholipid phosphatase 3),SID315473308,0.59,enough cells in well
"Prkg2 (protein kinase, cGMP-dependent, type II)",SID315468695,1.72,enough cells in well
Ppm1j (protein phosphatase 1J),SID315474363,0.26,enough cells in well
"Tas2r110 (taste receptor, type 2, member 110)",SID315481857,,fewer than 50 cells per well; well left out of calls
Or13c7d (olfactory receptor family 13 subfamily C member 7D),SID315470713,1.63,enough cells in well
"Thy1 (thymus cell antigen 1, theta)",SID315469714,0.23,enough cells in well
D930020B18Rik (RIKEN cDNA D930020B18 gene),SID315477996,-1.64 (active),enough cells in well
Cd72 (CD72 antigen),SID315465873,-0.42,enough cells in well
Ikbkg (inhibitor of kappaB kinase gamma),SID315467421,-0.91,enough cells in well
"Alox12e (arachidonate lipoxygenase, epidermal)",SID315465392,1.2,enough cells in well
"Hmces (5-hydroxymethylcytosine (hmC) binding, ES cell specific)",SID315478967,-0.88,enough cells in well
Snw1 (SNW domain containing 1),SID315472382,1.89,enough cells in well
"Cryl1 (crystallin, lambda 1)",SID315473589,-0.25,enough cells in well
Slfn8 (schlafen 8),SID315480984,,fewer than 50 cells per well; well left out of calls
"Zcchc3 (zinc finger, CCHC domain containing 3)",SID315473309,,fewer than 50 cells per well; well left out of calls
Klri2 (killer cell lectin-like receptor family I member 2),SID315481308,0.98,enough cells in well
Prkd2 (protein kinase D2),SID315476285,-1.47 (active),enough cells in well
Ifna14 (interferon alpha 14),SID315481958,-0.4,enough cells in well
Vasn (vasorin),SID315479864,,fewer than 50 cells per well; well left out of calls
Fndc4 (fibronectin type III domain containing 4),SID315472090,0.68,enough cells in well
4932411K12Rik (retired record),SID315481472,,fewer than 50 cells per well; well left out of calls
Rab3gap1 (RAB3 GTPase activating protein subunit 1),SID315478494,,fewer than 50 cells per well; well left out of calls
Ca7 (carbonic anhydrase 7),SID315465762,0.79,enough cells in well
Efcab14 (EF-hand calcium binding domain 14),SID315478800,1.46,enough cells in well
Ccr9 (C-C motif chemokine receptor 9),SID315466013,0.09,enough cells in well
Rnf125 (ring finger protein 125),SID315473152,2.39,enough cells in well
Cfap100 (cilia and flagella associated protein 100),SID315479691,,fewer than 50 cells per well; well left out of calls
Snx30 (sorting nexin family member 30),SID315477578,,fewer than 50 cells per well; well left out of calls
Folr1 (folate receptor alpha),SID315466733,3.75 (active),enough cells in well
Or2n1c (olfactory receptor family 2 subfamily N member 1C),SID315480020,-0.34,enough cells in well
Rbm47 (RNA binding motif protein 47),SID315479849,0.87,enough cells in well
Cd63 (CD63 antigen),SID315465869,-0.3,enough cells in well
Ykt6 (YKT6 v-SNARE homolog (S. cerevisiae)),SID315471519,1.11,enough cells in well
"Eif3e (eukaryotic translation initiation factor 3, subunit E)",SID315467488,-1.38 (active),enough cells in well
Klk1b27 (kallikrein 1-related peptidase b27),SID315467653,-0.55,enough cells in well
Ptpdc1 (protein tyrosine phosphatase domain containing 1),SID315478182,0.16,enough cells in well
Napa,SID315476700,-0.69,enough cells in well
